Consider two molecules from PMC5030362.

Sequences of proteins named here, by UniProt entry; tags and fusion partners are left off.
UniProt P03129: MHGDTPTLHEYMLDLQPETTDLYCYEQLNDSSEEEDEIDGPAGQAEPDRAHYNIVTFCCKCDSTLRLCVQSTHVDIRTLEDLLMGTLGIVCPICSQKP

These are yes or no findings as the source states them, for the method shown. In cells and extracts the contact can be indirect. A result given as binding can be weak or reduced; the word gives no strength.

For assay [1], the target named is HPV16 E7-Flag-HA, wild type (human papillomavirus type 16) (UniProt P03129). Put plainly: co-IP; N/Tert-1 E7-Flag-HA cells transduced with V5-tagged PTPN14 forms or fragments, harvested 48 h posttransduction; anti-HA immunoprecipitation, Western blot for V5 or PTPN14. A general note: Immunoblotting shows a protein as a band on a membrane.
Assay [2] deals with HPV17a E7-Flag-HA (human papillomavirus type 17a). Description: co-IP; anti-HA agarose immunoprecipitation of HA-tagged E7 from N/Tert-1 cell lysates; endogenous partners detected by Western blot.

Consider “PTPN14 ΔLinker 2, N-terminal V5 tag (from UniProt Q15678)”, for which the binding result in assay [1] is “binds”.

B1: PTPN14, endogenous (protein, UniProt Q15678 1-1187)
chain: MPFGLKLRRTRRYNVLSKNCFVTRIRLLDSNVIECTLSVESTGQECLEAVAQRLELRETHYFGLWFLSKSQQARWVELEKPLKKHLDKFANEPLLFFGVMFYVPNVSWLQQEATRYQYYLQVKKDVLEGRLRCTLDQVIRLAGLAVQADFGDYNQFDSQDFLREYVLFPMDLALEEAVLEELTQKVAQEHKAHSGILPAEAELMYINEVERLDGFGQEIFPVKDNHGNCVHLGIFFMGIFVRNRIGRQAVIYRWNDMGNITHNKSTILVELINKEETALFHTDDIENAKYISRLFATRHKFYKQNKICTEQSNSPPPIRRQPTWSRSSLPRQQPYILPPVHVQCGEHYSETHTSQDSIFHGNEEALYCNSHNSLDLNYLNGTVTNGSVCSVHSVNSLNCSQSFIQASPVSSNLSIPGSDIMRADYIPSHRHSAIIVPSYRPTPDYETVMRQMKRGILHTDSQSQSLRNLNIINTHAYNQPEDLVYSQPEMRERHPYTVPYGPQGVYSNKLVSPSDQRNPKNNVVPSKPGASAISHTVSTPELANMQLQGSHNYSTAHMLKNYLFRPPPPYPRPRPATSTPDLASHRHKYVSGSSPDLVTRKVQLSVKTFQEDSSPVVHQSLQEVSEPLTATKHHGTVNKRHSLEVMNSMVRGMEAMTLKSLHLPMARRNTLREQGPPEEGSGSHEVPQLPQYHHKKTFSDATMLIHSSESEEEEEEAPESVPQIPMLREKMEYSAQLQAALARIPNKPPPEYPGPRKSVSNGALRQDQASLPPAMARARVLRHGPAKAISMSRTDPPAVNGASLGPSISEPDLTSVKERVKKEPVKERPVSEMFSLEDSIIEREMMIRNLEKQKMAGLEAQKRPLMLAALNGLSVARVSGREENRVDATRVPMDERFRTLKKKLEEGMVFTEYEQIPKKKANGIFSTAALPENAERSRIREVVPYEENRVELIPTKENNTGYINASHIKVVVGGAEWHYIATQGPLPHTCHDFWQMVWEQGVNVIAMVTAEEEGGRTKSHRYWPKLGSKHSSATYGKFKVTTKFRTDSVCYATTGLKVKHLLSGQERTVWHLQYTDWPDHGCPEDVQGFLSYLEEIQSVRRHTNSMLEGTKNRHPPIVVHCSAGVGRTGVLILSELMIYCLEHNEKVEVPMMLRLLREQRMFMIQTIAQYKFVYQVLIQFLQNSRLI
Take B1: in assay [2], the binding result is “binds”.
